From the supplement of paper PMC10849652
This is one part of the list.

By UniProt entry, the sequences of proteins in these tests, tags left out. Where a name states a change or a piece, a line headed by the entry shows the natural chain unless it says otherwise.
UniProt Q8N465: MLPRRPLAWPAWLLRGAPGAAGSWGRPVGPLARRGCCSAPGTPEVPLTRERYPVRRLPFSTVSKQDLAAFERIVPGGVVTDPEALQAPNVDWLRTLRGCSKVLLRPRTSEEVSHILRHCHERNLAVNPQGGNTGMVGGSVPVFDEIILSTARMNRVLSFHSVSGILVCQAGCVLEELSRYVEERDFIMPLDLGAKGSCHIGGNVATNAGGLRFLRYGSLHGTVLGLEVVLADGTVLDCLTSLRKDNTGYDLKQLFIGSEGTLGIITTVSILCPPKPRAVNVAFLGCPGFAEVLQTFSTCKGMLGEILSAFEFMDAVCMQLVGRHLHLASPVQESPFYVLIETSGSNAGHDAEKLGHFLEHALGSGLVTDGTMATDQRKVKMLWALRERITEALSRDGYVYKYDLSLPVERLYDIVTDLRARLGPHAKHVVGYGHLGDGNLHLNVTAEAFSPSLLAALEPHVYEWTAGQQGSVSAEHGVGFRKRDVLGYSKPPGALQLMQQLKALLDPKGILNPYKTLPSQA
UniProt P53634: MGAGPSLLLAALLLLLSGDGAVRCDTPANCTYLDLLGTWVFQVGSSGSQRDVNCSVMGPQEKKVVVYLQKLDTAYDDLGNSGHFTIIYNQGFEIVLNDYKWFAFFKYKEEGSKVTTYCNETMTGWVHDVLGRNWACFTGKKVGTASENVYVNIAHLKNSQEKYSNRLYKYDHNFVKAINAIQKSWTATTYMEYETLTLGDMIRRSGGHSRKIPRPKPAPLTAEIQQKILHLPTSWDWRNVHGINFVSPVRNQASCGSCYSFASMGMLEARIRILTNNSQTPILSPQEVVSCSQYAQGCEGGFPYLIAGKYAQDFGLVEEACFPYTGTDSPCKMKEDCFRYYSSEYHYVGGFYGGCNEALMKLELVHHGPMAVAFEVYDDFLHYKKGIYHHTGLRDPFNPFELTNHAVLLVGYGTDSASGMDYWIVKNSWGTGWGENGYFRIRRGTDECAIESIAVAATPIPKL
UniProt Q6UW02: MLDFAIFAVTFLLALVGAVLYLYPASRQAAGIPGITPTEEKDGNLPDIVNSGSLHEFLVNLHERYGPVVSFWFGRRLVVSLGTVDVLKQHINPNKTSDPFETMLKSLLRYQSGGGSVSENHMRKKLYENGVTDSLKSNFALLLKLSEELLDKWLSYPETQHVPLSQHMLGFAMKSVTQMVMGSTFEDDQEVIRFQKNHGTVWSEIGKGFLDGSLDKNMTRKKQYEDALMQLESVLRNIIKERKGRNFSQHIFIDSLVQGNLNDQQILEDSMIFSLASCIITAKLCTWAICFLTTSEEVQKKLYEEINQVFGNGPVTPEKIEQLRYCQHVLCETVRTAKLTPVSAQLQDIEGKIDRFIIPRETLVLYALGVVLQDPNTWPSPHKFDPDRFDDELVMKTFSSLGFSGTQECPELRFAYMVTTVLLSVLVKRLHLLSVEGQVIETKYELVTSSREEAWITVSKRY
UniProt P21291: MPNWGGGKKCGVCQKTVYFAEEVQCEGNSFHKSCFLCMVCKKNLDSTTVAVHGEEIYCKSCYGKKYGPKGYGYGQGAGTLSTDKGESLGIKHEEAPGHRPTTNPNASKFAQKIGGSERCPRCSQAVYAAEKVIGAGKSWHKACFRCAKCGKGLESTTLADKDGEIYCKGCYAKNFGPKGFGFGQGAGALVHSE
UniProt Q9Y4B6: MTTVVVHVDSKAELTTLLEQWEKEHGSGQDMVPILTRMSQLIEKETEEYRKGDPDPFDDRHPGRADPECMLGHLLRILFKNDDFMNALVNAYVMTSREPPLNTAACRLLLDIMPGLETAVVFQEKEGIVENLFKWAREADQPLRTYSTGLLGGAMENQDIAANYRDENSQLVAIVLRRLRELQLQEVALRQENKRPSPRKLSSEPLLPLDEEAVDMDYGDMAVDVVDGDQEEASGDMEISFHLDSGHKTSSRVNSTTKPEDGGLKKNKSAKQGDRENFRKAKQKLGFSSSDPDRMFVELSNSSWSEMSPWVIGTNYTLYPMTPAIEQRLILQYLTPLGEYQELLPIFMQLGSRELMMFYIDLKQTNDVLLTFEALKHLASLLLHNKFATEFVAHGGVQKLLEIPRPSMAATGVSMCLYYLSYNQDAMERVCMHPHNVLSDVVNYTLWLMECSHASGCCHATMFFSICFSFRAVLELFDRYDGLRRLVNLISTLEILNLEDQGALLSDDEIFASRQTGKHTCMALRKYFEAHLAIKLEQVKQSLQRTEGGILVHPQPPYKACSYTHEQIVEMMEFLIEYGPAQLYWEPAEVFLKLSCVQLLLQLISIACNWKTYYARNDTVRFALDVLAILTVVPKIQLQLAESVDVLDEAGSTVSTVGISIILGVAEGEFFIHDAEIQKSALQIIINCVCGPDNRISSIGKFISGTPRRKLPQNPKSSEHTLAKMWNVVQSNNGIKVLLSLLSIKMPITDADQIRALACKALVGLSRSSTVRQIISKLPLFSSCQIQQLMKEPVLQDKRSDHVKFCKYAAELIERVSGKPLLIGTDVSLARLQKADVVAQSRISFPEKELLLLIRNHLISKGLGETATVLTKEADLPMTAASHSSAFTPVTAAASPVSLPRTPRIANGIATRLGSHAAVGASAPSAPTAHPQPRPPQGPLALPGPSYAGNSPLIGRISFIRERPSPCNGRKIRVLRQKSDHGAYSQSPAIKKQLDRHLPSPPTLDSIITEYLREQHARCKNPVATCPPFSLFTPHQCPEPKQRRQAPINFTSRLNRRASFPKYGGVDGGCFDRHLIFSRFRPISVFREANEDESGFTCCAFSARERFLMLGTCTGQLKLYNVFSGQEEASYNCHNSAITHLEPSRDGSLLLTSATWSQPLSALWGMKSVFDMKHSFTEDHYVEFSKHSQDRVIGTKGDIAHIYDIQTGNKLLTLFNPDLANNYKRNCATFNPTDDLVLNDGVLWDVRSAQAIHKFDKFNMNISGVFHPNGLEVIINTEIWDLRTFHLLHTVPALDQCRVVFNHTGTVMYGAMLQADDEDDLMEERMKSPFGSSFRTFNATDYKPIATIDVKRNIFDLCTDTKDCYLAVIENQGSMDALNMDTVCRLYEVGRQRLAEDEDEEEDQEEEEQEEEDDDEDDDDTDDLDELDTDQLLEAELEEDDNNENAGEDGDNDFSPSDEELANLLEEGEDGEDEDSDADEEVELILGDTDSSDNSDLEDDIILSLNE
UniProt P35221: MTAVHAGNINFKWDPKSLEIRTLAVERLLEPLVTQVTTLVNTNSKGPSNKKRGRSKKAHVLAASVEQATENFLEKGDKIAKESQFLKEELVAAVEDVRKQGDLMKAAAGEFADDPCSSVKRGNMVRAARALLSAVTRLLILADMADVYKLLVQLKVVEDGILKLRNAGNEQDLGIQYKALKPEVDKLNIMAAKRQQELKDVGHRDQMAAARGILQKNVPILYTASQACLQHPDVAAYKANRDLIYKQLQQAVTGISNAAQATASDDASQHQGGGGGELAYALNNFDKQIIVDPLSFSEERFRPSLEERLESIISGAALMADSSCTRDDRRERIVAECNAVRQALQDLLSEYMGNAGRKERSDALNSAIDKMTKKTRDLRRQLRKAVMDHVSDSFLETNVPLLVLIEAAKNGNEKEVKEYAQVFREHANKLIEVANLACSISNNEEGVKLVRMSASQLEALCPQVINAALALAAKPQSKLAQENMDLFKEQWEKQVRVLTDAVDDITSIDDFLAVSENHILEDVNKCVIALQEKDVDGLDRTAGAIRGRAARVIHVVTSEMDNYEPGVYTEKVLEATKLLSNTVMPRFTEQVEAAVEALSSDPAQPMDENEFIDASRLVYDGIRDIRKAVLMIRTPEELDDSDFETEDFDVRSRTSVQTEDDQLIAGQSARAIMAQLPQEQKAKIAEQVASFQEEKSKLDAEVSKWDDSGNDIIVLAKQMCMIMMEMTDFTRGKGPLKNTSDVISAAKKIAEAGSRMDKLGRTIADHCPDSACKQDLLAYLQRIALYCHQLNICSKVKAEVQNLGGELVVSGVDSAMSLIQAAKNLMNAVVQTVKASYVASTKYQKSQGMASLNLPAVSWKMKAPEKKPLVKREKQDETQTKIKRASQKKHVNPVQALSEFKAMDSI
UniProt P11182, whole entry, looked up: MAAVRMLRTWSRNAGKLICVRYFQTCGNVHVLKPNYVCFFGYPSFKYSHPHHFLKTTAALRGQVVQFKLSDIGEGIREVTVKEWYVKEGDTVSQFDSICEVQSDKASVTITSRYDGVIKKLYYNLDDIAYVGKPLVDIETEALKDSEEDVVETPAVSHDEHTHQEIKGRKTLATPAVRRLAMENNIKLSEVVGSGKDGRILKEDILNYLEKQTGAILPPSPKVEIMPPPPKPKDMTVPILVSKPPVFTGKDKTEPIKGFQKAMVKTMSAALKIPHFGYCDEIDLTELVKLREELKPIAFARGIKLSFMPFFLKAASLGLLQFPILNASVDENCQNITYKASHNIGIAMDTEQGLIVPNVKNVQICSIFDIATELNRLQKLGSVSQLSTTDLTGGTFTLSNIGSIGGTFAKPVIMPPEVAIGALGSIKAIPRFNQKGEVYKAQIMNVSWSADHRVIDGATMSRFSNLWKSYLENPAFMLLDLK
UniProt Q93034, whole entry, looked up: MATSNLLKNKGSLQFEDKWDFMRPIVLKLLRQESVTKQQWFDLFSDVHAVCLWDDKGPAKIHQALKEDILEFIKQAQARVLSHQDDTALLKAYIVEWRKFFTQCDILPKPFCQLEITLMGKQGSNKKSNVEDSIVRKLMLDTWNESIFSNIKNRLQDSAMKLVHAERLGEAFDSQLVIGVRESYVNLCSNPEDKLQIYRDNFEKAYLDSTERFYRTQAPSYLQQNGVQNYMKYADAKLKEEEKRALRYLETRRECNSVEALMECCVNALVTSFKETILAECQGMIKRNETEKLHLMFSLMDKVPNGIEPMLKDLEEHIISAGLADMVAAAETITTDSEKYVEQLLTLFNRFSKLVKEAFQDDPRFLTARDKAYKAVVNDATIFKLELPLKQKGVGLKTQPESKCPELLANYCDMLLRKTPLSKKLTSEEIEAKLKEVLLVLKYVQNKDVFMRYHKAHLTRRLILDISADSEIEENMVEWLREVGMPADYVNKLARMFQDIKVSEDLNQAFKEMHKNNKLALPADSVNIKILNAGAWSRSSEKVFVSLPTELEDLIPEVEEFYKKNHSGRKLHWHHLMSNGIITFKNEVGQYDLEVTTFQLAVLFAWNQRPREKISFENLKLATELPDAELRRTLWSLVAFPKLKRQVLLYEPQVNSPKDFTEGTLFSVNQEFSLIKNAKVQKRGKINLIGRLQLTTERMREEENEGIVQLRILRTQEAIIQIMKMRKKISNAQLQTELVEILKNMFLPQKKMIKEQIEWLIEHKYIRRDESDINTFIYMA
UniProt P32321: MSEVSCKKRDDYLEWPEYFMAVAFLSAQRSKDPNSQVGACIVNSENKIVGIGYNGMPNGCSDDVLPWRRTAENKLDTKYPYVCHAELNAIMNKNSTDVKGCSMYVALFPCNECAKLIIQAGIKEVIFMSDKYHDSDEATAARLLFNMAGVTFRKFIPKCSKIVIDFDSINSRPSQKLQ
UniProt P01034: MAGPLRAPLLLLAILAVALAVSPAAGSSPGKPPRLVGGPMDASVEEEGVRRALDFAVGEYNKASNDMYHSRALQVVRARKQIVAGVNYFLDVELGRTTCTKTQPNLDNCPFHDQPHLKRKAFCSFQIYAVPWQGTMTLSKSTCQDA
UniProt Q96C86: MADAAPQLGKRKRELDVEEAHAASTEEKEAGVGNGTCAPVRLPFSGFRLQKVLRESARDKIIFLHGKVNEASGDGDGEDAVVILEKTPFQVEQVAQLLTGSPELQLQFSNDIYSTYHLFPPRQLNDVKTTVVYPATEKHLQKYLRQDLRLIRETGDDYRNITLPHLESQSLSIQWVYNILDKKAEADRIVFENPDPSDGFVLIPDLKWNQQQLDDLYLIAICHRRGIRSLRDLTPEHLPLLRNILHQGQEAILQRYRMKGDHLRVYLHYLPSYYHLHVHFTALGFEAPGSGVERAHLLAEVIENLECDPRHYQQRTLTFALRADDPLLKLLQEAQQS
UniProt P04080: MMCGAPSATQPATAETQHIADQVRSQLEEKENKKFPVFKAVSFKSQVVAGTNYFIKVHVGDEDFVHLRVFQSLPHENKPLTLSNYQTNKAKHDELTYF
UniProt Q8WVC6: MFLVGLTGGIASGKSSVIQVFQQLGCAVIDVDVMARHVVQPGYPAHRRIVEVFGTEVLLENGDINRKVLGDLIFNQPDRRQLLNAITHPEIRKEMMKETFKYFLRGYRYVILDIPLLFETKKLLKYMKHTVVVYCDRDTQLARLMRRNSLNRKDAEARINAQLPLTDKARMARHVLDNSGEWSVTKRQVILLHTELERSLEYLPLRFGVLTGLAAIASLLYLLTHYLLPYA
UniProt P0DMU9: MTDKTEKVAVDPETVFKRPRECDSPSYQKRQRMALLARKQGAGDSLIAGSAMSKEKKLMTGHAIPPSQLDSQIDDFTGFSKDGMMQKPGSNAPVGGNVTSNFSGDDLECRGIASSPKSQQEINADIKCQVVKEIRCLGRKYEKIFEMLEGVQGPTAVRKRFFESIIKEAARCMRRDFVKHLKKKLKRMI

Compound: Cc1cc(SCc2sc(-c3ccc(C(F)(F)F)cc3)nc2C)ccc1OCC(=O)O
Assay: log2 fold change, soluble protein after heating vs DMSO (PISA); higher = thermal stabilisation; K562 cells, 10 uM, 30 min; active = over 0.2 and 3.5 SD of the protein, either way, in both replicates (recomputed)
Outline: (§1)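 K562 cells at 2×10^6 cells/mL were given 10 μM compound for 30 min. Aliquots then went through 3 min of heating across 48°C-58°C, were pooled, and were extracted in PBS with 0.5% NP-40 at 4°C, and the supernatant after 21,000xg for 90 min was quantified by TMTpro 16plex LC-MS/MS with channel sums equalised. Thermal stability relative to control samples, from duplicates, is given as log2 fold change.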

Target | log2 fold change
CUEDC2 (UniProt Q9H467) | inactive: 0.012
DCTN3 (UniProt O75935) | inactive: 0.043
D2HGDH (UniProt Q8N465) | inactive: -0.018
CTSC (UniProt P53634) | inactive: -0.047
CTCF (UniProt P49711) | inactive: 0.041
CYP20A1 (UniProt Q6UW02) | inactive: 0.009
CTH (UniProt P32929) | inactive: -0.017
CTNNA2 (UniProt P26232) | inactive: 0.028
CTBP2 isoform 2 (UniProt P56545) | inactive: -0.031
CSRP1 (UniProt P21291) | inactive: -0.052
CSTF1 (UniProt Q05048) | inactive: 0.048
DARS (UniProt P14868) | inactive: -0.022
CXorf56 (UniProt Q9H5V9) | inactive: -0.001
CYFIP2 (UniProt Q96F07) | inactive: 0.032
DCAF15 (UniProt Q66K64) | inactive: 0.017
CTNND1 (UniProt O60716) | inactive: 0.044
DCAF1 (UniProt Q9Y4B6) | inactive: 0.032
DCUN1D4 isoform 3 (UniProt Q92564) | inactive: 0.027
CYBC1 (UniProt Q9BQA9) | inactive: -0.056
CTNNA1 isoform 2 (UniProt P35221) | inactive: -0.013

Target | log2 fold change
DBT (UniProt P11182) | inactive: -0.042
CUL5 (UniProt Q93034) | inactive: -0.026
DCTD isoform 2 (UniProt P32321) | inactive: -0.02
CTPS1 (UniProt P17812) | inactive: 0.006
CYB5R2 (UniProt Q6BCY4) | inactive: -0.057
CYB5B, A0A499FJ32 | inactive: -0.068
CST3 (UniProt P01034) | inactive: -0.068
DCK (UniProt P27707) | inactive: -0.046
CTDP1 (UniProt Q9Y5B0) | inactive: 0.044
CTU1 (UniProt Q7Z7A3) | inactive: 0.058
DAD1 (UniProt P61803) | inactive: -0.051
CTBP1 (UniProt Q13363) | inactive: -0.017
DCPS (UniProt Q96C86) | inactive: -0.017
CSTB (UniProt P04080) | inactive: 0.017
DBN1 isoform 3 (UniProt Q16643) | inactive: -0.02
DCAKD (UniProt Q8WVC6) | inactive: 0.091
DBR1 (UniProt Q9UK59) | inactive: 0.01
CT45A10 (UniProt P0DMU9) | inactive: 0.166
DAP3 (UniProt P51398) | inactive: 0.046

Compound: Cc1ccc(-n2nc(C(C)(C)C)cc2NC(=O)Nc2ccc(OCCN3CCOCC3)c3ccccc23)cc1 [doramapimod]
Assay: as above
Outline: as §1

Target | log2 fold change
CUEDC2 (UniProt Q9H467) | inactive: -0.087
DCTN3 (UniProt O75935) | inactive: -0.029
CWC25 (UniProt Q9NXE8) | inactive: 0.239
D2HGDH (UniProt Q8N465) | inactive: 0.024
CTSC (UniProt P53634) | inactive: 0.013
CTCF (UniProt P49711) | inactive: 0.265
CYP20A1 (UniProt Q6UW02) | inactive: -0.004
CTH (UniProt P32929) | inactive: -0.025
CTNNA2 (UniProt P26232) | inactive: 0.056
CTBP2 isoform 2 (UniProt P56545) | inactive: 0
CSRP1 (UniProt P21291) | inactive: -0.084
CSTF1 (UniProt Q05048) | inactive: -0.1
DARS (UniProt P14868) | inactive: 0.009
CXorf56 (UniProt Q9H5V9) | inactive: 0.004
CYFIP2 (UniProt Q96F07) | inactive: 0.028
DCAF15 (UniProt Q66K64) | inactive: 0.059
CTNND1 (UniProt O60716) | inactive: 0.084
DCAF1 (UniProt Q9Y4B6) | inactive: -0.019
DCUN1D4 isoform 3 (UniProt Q92564) | inactive: -0.058
CYBC1 (UniProt Q9BQA9) | inactive: 0.002

Target | log2 fold change
CTNNA1 isoform 2 (UniProt P35221) | inactive: 0.019
DBT (UniProt P11182) | inactive: 0.029
CUL5 (UniProt Q93034) | inactive: -0.02
DCTD isoform 2 (UniProt P32321) | inactive: -0.029
CTPS1 (UniProt P17812) | inactive: -0.014
CYB5R2 (UniProt Q6BCY4) | inactive: 0.018
CYB5B, A0A499FJ32 | inactive: 0.026
CST3 (UniProt P01034) | inactive: 0.07
DCK (UniProt P27707) | inactive: -0.002
CTDP1 (UniProt Q9Y5B0) | inactive: -0.053
CTU1 (UniProt Q7Z7A3) | inactive: -0.049
DAD1 (UniProt P61803) | inactive: -0.029
CTBP1 (UniProt Q13363) | inactive: -0.025
DCPS (UniProt Q96C86) | inactive: -0.009
CSTB (UniProt P04080) | inactive: -0.017
DBN1 isoform 3 (UniProt Q16643) | inactive: 0.02
DCAKD (UniProt Q8WVC6) | inactive: 0.046
DBR1 (UniProt Q9UK59) | inactive: 0.02
CT45A10 (UniProt P0DMU9) | inactive: 0.17
DAP3 (UniProt P51398) | inactive: 0.04
